# Reference: patent publication US9750705B2, “Agents useful for treating obesity, diabetes and related disorders” (The Regents of the University of California, priority 2012, dated 2017)
# At least one structure is not confirmed: it was looked up by name or label, or the drawing left a doubt.
# Test system: insulin-dependent activation of Akt and ERK in FL83B cells
# Experiment: High-throughput in-cell western blot (ICWB) screen for insulin sensitizers: insulin-dependent phospho-Akt versus phospho-Erk
# Type: cell-based, mouse
# Conditions: screen of 1689 molecules
# Procedure: Drugs were screened by in-cell western blot (ICWB) for their ability to stimulate phospho-Akt activation in the presence of trace or 10 nM insulin (FIG. 4A). Cells in wells were treated with drugs, and the activity (phosphorylation) of Akt was determined by a phospho-Akt specific antibody. In FIG. 4A, low insulin was given and drugs a, b, c, stimulated Akt activation. In FIG. 4B, 10 nM insulin was given and a, b, and c stimulated signaling over background, and d and e inhibited. […] Drugs were primarily screened for their ability to promote insulin-dependent stimulation of (phospho) Akt, then secondarily screened for lack of activity to stimulate (phospho) Erk, or a high Akt/Erk ratio. […]
# FL83B cells were seeded on 384 well plates, 10,000 cells per well in F-12 media supplemented with 10% FBS and 25 mM glucose; 48 hours later the media was replaced with F-12, 25 mM glucose without FBS for sixteen hours; cells were supplemented with assigned drug at desired concentration for 1 hour in duplicate and then, the cells were stimulated with desired concentration of insulin for ten minutes for Akt activation and fifteen minutes for ERK activation measurements. […] Phospho-Akt, Phospho-ERK signals than were normalized by tubulin signals in each well and the densitometric results were analyzed to identify drugs which improved metabolic insulin sensitivity without inducing the mitogenic ERK activation. […]
structure (smiles),measurement,value
C[C@H]1O[C@H](O[C@H]2[C@H](O)[C@@H](O)[C@@H](O[C@H]3[C@H](O)[C@@H](O)C(O)O[C@@H]3CO)O[C@@H]2CO)[C@H](O)[C@@H](O)[C@@H]1N[C@H]1C=C(CO)[C@@H](O)[C@H](O)[C@H]1O (stereo partly shown) [acarbose],rank in the insulin-sensitizer screen,top 35 out of 1689
